These are yes or no findings as the source states them, for the method shown. Some binding calls cover weakened binding; strength is not graded here. Tags and fused reporters may be left off the sequences shown.

For this assay, the target named is T1, bovine IL-2Rα (bovine) (UniProt P12342).
T1 sequence: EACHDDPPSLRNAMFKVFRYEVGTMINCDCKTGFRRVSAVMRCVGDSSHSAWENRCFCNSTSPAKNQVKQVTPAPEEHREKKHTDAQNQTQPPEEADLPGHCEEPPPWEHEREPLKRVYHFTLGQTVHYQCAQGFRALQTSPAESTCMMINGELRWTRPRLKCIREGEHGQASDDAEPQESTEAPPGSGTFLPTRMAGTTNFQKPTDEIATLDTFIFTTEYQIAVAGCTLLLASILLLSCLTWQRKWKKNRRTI
The assay can be described thus: flow cytometry on cells. Background: Flow cytometry measures light scatter and fluorescence of single cells or particles in a stream.

B1: FLAG-tagged bovine IL-2 (ligand, UniProt P05016 21-155)
chain: APTSSSTGNTMKEVKSLLLDLQLLLEKVKNPENLKLSRMHTFDFYVPKVNATELKHLKCLLEELKLLEEVLNLAPSKNLNPREIKDSMDNIKRIVLELQGSETRFTCEYDDATVNAVEFLNKWITFCQSIYSTMT
Take B1: the binding entry is recorded as “binds”.

The record behind these values is doi:10.1101/644955.
